{
  "source": "the supplement of paper PMC6143611",
  "note": "Counter-ions that a name gives are not always drawn. ± gives the uncertainty stated by the source. The list shows a part of the results. Baselines shift from plate to plate; read single values as rough.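 Larvae carried a heat-shock-induced fluorescent stripe in rod outer segments, set at 6 dpf; the shedding distance runs from this stripe to the outer segment tip, measured in confocal stacks, about three fish per compound. The controls got 0.2% DMSO vehicle, and the paper flagged compounds with at least a 20% change against the same-week control and p < 0.001 (Dunnett test on mixed-effects models).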",
  "data": [
    {"system": "Danio rerio larva rod photoreceptor outer segment", "test": "rod outer segment shedding distance Ds, difference from same-week DMSO control mean; higher = less outer segment shedding", "settings": "20 µM; treatment time: 4 days (6-10 dpf)", "units": {"rod outer segment shedding distance Ds": "um"}, "values": [
      {"smiles": "Cc1ccc(Nc2nccc(N(C)c3ccc4c(C)n(C)nc4c3)n2)cc1S(N)(=O)=O", "note": "[Pazopanib]", "rod outer segment shedding distance Ds": "0.01 ± 0.13"},
      {"smiles": "CC(/C=C1\\SC(=S)N(CC(=O)O)C1=O)=C\\c1ccccc1", "note": "[Epalrestat]", "rod outer segment shedding distance Ds": "-0.03 ± 0.26"},
      {"smiles": "O=C1NC(=O)C(c2ccccc2)(c2ccccc2)N1", "note": "[Phenytoin]", "rod outer segment shedding distance Ds": "-0.58 ± 0.37"},
      {"smiles": "Cc1cc2c(cc1CC(=O)c1sccc1S(=O)(=O)Nc1onc(C)c1Cl)OCO2", "note": "[Sitaxentan sodium]", "rod outer segment shedding distance Ds": "0.18 ± 0.16"},
      {"smiles": "O=C1c2c(O)ccc(O)c2C(=O)c2c(NCCNCCO)ccc(NCCNCCO)c21", "note": "[Mitoxantrone HCl]", "rod outer segment shedding distance Ds": "0.96 ± 0.29"},
      {"smiles": "COc1ccnc2[nH]cc(C(=O)C(=O)N3CCN(C(=O)c4ccccc4)C[C@H]3C)c12", "rod outer segment shedding distance Ds": "-0.55 ± 0.13"},
      {"smiles": "O=C(NC[C@H]1CN(c2ccc(N3CCOCC3=O)cc2)C(=O)O1)c1ccc(Cl)s1", "note": "[Rivaroxaban]", "rod outer segment shedding distance Ds": "0.05 ± 0.12"},
      {"smiles": "Cn1cc(-c2ccc3nnc(C(F)(F)c4ccc5ncccc5c4)n3n2)cn1", "rod outer segment shedding distance Ds": "-0.35 ± 0.21"},
      {"smiles": "CN(C)c1ccc(-c2nc3ncc(Cl)c(N4CCN(CC(=O)Nc5nccs5)CC4)c3[nH]2)cc1", "rod outer segment shedding distance Ds": "1.54 ± 0.16"},
      {"smiles": "Cc1ncc(-c2ccnc(Nc3ccc(S(C)(=O)=O)cc3)n2)n1C(C)C", "rod outer segment shedding distance Ds": "0.97 ± 0.11"},
      {"smiles": "COc1ccc2cc3[n+](cc2c1OC)CCc1cc2c(cc1-3)OCO2", "note": "[Berberine HCl]", "rod outer segment shedding distance Ds": "-0.11 ± 0.41"},
      {"smiles": "O=C(O)CSCC(=O)NC1CCSC1=O", "note": "(centres undefined) [Erdosteine]", "rod outer segment shedding distance Ds": "-0.38 ± 0.17"},
      {"smiles": "Cn1nnc2c(C(N)=O)ncn2c1=O", "note": "[Temozolomide]", "rod outer segment shedding distance Ds": "0.15 ± 0.33"},
      {"smiles": "CC(=O)Nc1nc(C)c(-c2ccc(Cl)c(S(=O)(=O)NCCO)c2)s1", "rod outer segment shedding distance Ds": "-0.54 ± 0.19"}
    ]}
  ]
}
